Results published in patent US20150290240A1 (Fred Hulchinson Cancer Research Center, priority 2012, published 2015).
At least one structure is not confirmed: it was looked up by name or label, or the drawing left a doubt.

System: mouse model of heart attack (myocardial ischemia and reperfusion)
Assay: Infarct size by morphometry (TTC and Evans blue) after LAD ligation and 2 hours of reperfusion
Format: in vivo, mice
Conditions: 800 μg/kg (0.8 mg/kg) at reperfusion; selenide vs selenite comparison (FIG. 6)
Description: For the myocardial infarction model, open chest ligation of the left descending coronary artery (LAD ligation) was performed in mice. At 55 minutes post initiation of ischemia, either vehicle or test agent was injected into the femoral vein of each mouse. The heart muscle was reperfused by releasing the ligature at 60 minutes post initiation of ischemia. Mice were then sacrificed at either 2 hours or 2 days post reperfusion for infarct size measurement and blood analysis or heart function assays, respectively, as described below.
In order to examine the effect of NaHSe on myocardial infarct size, mice were subjected to LAD ligation, and after 2 hours of reperfusion, infarct size was measured by morphometry (FIG. 1). Six groups of mice were utilized in this study, including a saline vehicle group and five test groups that received 50, 200, 800, 1600 and 2400 μg/kg of NaHSe. To be certain that all animals in the study were treated in a similar way, the area at risk (AAR) as a proportion of the left ventricle was determined (FIG. 1, left panel).
Area at risk and infarct size (Inf) were measured using the specific dyes TTC and Evans blue. Processed images were generated in an unbiased way by setting constant thresholds and allowing Photoshop® to generate the images that were quantitated to generate FIG. 1.

## O=[Se](O)O [sodium selenite, reference compound]
  benefit relative to infarct size vs saline: provided no benefit
